Laboratory results taken from article PMC2584773.
These are yes or no findings as the source states them, for the method shown. For part of these data: Binding can be weak; no strength is given.

Protein sequences, listed by entry. Tags and fused reporters are not part of them. Lines headed by an entry give the natural chain unless they say otherwise; changes in a name come on top. Chains listed by the source or under a name are the forms on record and can include a tag or linker. Residues count along the entry.
UniProt Q92786: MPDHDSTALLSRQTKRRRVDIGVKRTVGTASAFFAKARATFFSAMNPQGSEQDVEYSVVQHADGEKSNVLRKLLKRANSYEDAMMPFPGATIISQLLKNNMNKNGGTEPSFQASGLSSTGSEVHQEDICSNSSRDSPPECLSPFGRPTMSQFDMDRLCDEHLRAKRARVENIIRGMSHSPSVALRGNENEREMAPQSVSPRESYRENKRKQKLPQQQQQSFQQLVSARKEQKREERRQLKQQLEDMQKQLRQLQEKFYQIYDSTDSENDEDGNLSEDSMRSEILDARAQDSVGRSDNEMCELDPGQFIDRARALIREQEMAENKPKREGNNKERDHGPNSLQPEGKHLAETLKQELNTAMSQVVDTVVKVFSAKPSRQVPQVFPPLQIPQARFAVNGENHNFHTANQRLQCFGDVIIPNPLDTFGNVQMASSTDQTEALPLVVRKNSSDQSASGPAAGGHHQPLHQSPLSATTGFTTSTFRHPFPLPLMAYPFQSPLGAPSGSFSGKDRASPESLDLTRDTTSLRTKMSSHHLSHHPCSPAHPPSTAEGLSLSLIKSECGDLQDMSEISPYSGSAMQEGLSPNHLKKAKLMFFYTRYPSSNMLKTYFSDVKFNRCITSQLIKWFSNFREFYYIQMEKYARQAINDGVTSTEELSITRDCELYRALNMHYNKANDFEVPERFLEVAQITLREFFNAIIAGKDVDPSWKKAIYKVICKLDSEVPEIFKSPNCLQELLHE
PCNA C+ fragment (amino acids 115-261), carboxyl-terminal domain 2 plus the IDCL, fused to the Gal4 activation domain (P17918, residues 115-261): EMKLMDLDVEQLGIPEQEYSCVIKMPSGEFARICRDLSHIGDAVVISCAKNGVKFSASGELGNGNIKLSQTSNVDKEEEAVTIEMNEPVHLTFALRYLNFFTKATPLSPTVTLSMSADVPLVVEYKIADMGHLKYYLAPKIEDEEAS
UniProt P17918, residues 167-261: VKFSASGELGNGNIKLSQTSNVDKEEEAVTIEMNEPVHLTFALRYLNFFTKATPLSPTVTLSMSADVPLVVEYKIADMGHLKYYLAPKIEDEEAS

Experiments:
Test in all cases: two-hybrid; mating of AH109 (Gal4 DNA-binding domain-Prox1 bait) with Y187 (Gal4 activation domain-PCNA prey); colonies from DO plates restreaked on high stringency quadruple drop out (QDO) plates with X-alpha-Gal; growth and blue colour
[1] = target: Prox1 homeo-Prospero domain PIP box mutant QLFF (human) (UniProt Q92786)
[2] = target: Prox1 homeo-Prospero domain PIP box mutant LF (human) (UniProt Q92786)
[3] = target: Prox1 homeo-Prospero domain PIP box mutant ELF (human) (UniProt Q92786)

Row | binding [1] | binding [2] | binding [3] | Substance
1 | no binding | binds | binds | carboxyl-terminus of PCNA (amino acids 167-261), original clone isolated from the library, fused to the Gal4 activation domain (from UniProt P17918 167-261) (domain or fragment)
2 | no binding | binds | binds | PCNA C+ fragment (amino acids 115-261), carboxyl-terminal domain 2 plus the IDCL, fused to the Gal4 activation domain (from UniProt P17918 115-261) (domain or fragment)
